# Record: PubChem BioAssay AID493246 (Drosophila RNAi Screening Center, 2011)
# Aim: 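Genome-wide search for dsRNAs that reduce cell number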 (primary screen)
# Cell system: Drosophila Kc and S2R+ cells
# Reagents: long dsRNA against Drosophila genes
# Read-out: 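Raw, unnormalised count of remaining cells in each well; per-plate z-scores of cell number underlie the calls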
# Scale: Kc cell number and S2R+ cell number: higher = more cells remaining
# Call rule: 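Counted as a hit if cell number falls by a z-score of at least 3 within its plate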
# In all, the deposit lists about 21,000 reagents; this is an unselected part of those with a known target gene and a result. Over the whole deposit, 429 (2%) were called active. 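Values are raw and not normalised between plates; calls rest on per-plate z-scores that were not deposited.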 A plus sign joins genes that one reagent is predicted to hit. Not stated in the record: the amount of reagent, the time to read-out.
gene,dsRNA,"Kc cell number, rep 1","Kc cell number, rep 2","S2R+ cell number, rep 1","S2R+ cell number, rep 2",Call
sNPF,DRSC02309,1.45e6,1.57e6,1.34e6,3.41e5,inactive
raptor,DRSC18359,1.49e6,1.49e6,8.99e5,1.06e6,inactive
SpdS,DRSC16408,1.41e6,1.48e6,1.19e6,1.27e6,inactive
CG9646,DRSC07342,1.57e6,1.53e6,1.12e6,1.29e6,inactive
GstD5,DRSC16686,1.63e6,1.59e6,1.34e6,1.39e6,inactive
CG30467,DRSC07097,1.75e6,1.70e6,1.27e6,1.39e6,inactive
Obp28a,DRSC03394,1.76e6,1.92e6,1.16e6,1.28e6,inactive
CSN1a,DRSC01951,1.52e6,1.62e6,1.20e6,1.32e6,inactive
CG34242,DRSC09185,1.65e6,1.65e6,1.18e6,1.36e6,inactive
CG9330,DRSC11066,1.40e6,1.46e6,1.25e6,1.31e6,inactive
CG12204,DRSC19442,1.53e6,1.61e6,1.04e6,1.20e6,inactive
Sos,DRSC03439,1.57e6,1.57e6,1.17e6,1.25e6,inactive
net,DRSC00309,1.63e6,1.68e6,1.14e6,1.23e6,inactive
Ts,DRSC00795,1.65e6,1.65e6,1.13e6,1.31e6,inactive
SsRbeta,DRSC11290,1.63e6,1.63e6,1.33e6,1.38e6,inactive
CG12170,DRSC12199,1.34e6,1.35e6,1.12e6,1.19e6,inactive
CG12693,DRSC17882,1.45e6,1.46e6,9.97e5,1.12e6,inactive
CG5888,DRSC01929,1.29e6,1.39e6,1.33e6,1.37e6,inactive
sick,DRSC02090,1.69e6,1.81e6,1.04e6,2.25e5,inactive
sick,DRSC02301,1.64e6,1.63e6,1.28e6,3.39e5,inactive
sick,DRSC02302,1.54e6,1.58e6,1.30e6,2.86e5,inactive
sick,DRSC02303,1.48e6,1.66e6,1.22e6,3.36e5,inactive
sick,DRSC02306,1.66e6,1.74e6,1.45e6,3.61e5,inactive
Ugt303B1,DRSC15141,1.61e6,1.70e6,1.02e6,1.12e6,inactive
CG3795,DRSC18593,5.11e5,,7.53e5,,inactive
ci,DRSC17172,1.53e6,1.54e6,1.03e6,1.15e6,inactive
CG1360,DRSC06406,1.52e6,1.57e6,1.32e6,1.39e6,inactive
ACXC,DRSC00846,1.56e6,1.59e6,1.22e6,1.32e6,inactive
RpL14,DRSC11269,8.88e5,9.66e5,5.74e5,6.84e5,active
inaC,DRSC07632,1.43e6,1.44e6,1.26e6,1.36e6,inactive
CG9021,DRSC03128,1.28e6,1.29e6,6.49e5,7.07e5,inactive
mldr,DRSC18100,1.56e6,1.50e6,1.06e6,1.15e6,inactive
CG15233,DRSC04967,1.43e6,1.53e6,1.19e6,1.19e6,inactive
CG32354,DRSC10763,1.41e6,1.43e6,1.20e6,1.14e6,inactive
CG32354,DRSC10775,1.46e6,1.51e6,1.04e6,1.13e6,inactive
CG7382,DRSC03052,1.23e6,1.25e6,5.17e5,8.13e5,inactive
osa,DRSC17022,1.37e6,1.55e6,1.16e6,1.27e6,inactive
CG9826,DRSC04570,1.67e6,1.75e6,1.39e6,1.54e6,inactive
CG17786,DRSC15270,1.55e6,1.69e6,9.47e5,1.08e6,inactive
NijA,DRSC10637,1.54e6,1.46e6,1.20e6,1.32e6,inactive
Cat,DRSC11110,1.71e6,1.86e6,1.36e6,1.49e6,inactive
Opa1,DRSC07191,1.41e6,1.54e6,1.00e6,1.12e6,inactive
CG33543,DRSC00384,1.43e6,1.50e6,1.02e6,1.24e6,inactive
CG33543,DRSC00385,1.45e6,1.53e6,1.06e6,1.21e6,inactive
CCHa2,DRSC14835,1.39e6,1.55e6,1.02e6,1.08e6,inactive
CG12107,DRSC06102,1.06e6,1.19e6,7.68e5,6.76e5,inactive
CG33981 + fab1,DRSC07412,1.37e6,1.42e6,1.10e6,1.14e6,inactive
Smurf,DRSC07641,1.60e6,1.61e6,1.15e6,1.27e6,inactive
CG1941,DRSC06802,1.62e6,1.61e6,1.30e6,1.46e6,inactive
CG4880,DRSC19923,1.48e6,1.54e6,1.04e6,1.15e6,inactive
Bdp1,DRSC03192,1.33e6,1.46e6,1.13e6,1.13e6,inactive
ZIPIC,DRSC16349,5.42e5,,8.45e5,,inactive
CG14421,DRSC17918,1.75e6,1.80e6,1.11e6,1.26e6,inactive
Adk2,DRSC09827,1.33e6,1.31e6,1.22e6,9.39e5,inactive
yellow-d,DRSC04589,1.52e6,1.65e6,1.36e6,1.36e6,inactive
CG32700,DRSC17857,1.57e6,1.49e6,1.04e6,1.12e6,inactive
CG32700,DRSC17858,1.51e6,1.48e6,1.06e6,1.10e6,inactive
CG4757,DRSC14130,1.62e6,1.56e6,1.25e6,1.36e6,inactive
Gbp1,DRSC06592,1.57e6,1.63e6,1.25e6,1.31e6,inactive
